No constants are given. Whether binding was seen depends on the method and setting. Binding seen in cells or lysates may run through a third protein. Some results given as binding are weak or reduced against the parent protein; the word gives no strength.
Biological target: c-FOS (human (endogenous in MM.1S and KMS12-BM)) (UniProt P01100)
Test: co-IP; nuclear extracts of MM.1S and KMS12-BM cells; immunoprecipitated with anti-c-FOS antibody on protein A magnetic beads (isotype-matched IgG as control); immunoblot for IKZF1, IKZF3, c-FOS, c-JUN, IRF4

Chains of the proteins cited; added tags and fusions are not shown.
UniProt Q9UKT9: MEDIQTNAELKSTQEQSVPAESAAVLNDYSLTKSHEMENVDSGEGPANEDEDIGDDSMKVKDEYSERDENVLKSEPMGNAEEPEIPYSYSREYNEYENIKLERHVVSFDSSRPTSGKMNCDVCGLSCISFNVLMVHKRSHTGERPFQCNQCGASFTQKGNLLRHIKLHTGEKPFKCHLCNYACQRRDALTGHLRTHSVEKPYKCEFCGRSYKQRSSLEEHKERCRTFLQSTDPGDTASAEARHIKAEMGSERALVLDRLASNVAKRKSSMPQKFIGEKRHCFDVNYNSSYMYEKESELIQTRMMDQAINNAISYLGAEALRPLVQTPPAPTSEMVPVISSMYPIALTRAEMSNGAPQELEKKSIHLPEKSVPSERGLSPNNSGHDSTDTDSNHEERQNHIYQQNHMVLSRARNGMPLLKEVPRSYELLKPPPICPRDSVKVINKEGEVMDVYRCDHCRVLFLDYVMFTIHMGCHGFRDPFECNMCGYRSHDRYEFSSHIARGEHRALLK

Substance: IKZF3 (from UniProt Q9UKT9 1-509)
- binding: binds

Reference: article PMC10426395
